Literature values as cited in US12583820B2, “Broad spectrum antivirals against coronavirus” (priority 2020, dated 2026).
For at least one compound, name, drawing or mass did not settle the structure.

System: MERS-CoV
Conditions: mouse, in vivo; cited from earlier work

Structure (SMILES): CCC(CC)COC(=O)[C@H](C)N[P@](=O)(OC[C@H]1O[C@@](C#N)(c2ccc3c(N)ncnn23)[C@H](O)[C@@H]1O)Oc1ccccc1 [Remdesivir]
- MERS-CoV mediated weight loss, lung virus titers and lung injury scores compared to vehicle-treated mice: significantly reduce MERS-CoV mediated weight loss, lung virus titers and lung injury scores
